PubChem BioAssay AID1224826 – NIAID – 2016
Test: 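Genes that change LPS-induced Tnf promoter activity in mouse macrophages when knocked down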 (primary screen). System: RAW264.7 G9 macrophages from mouse bearing reporters for p65 (GFP) and the Tnf promoter (mCherry). Reagent: siRNA pool against mouse genes, 100 nM. Timing: 16 h of LPS stimulation, after 2 days of siRNA transfection. Challenge: bacterial lipopolysaccharide (Salmonella minnesota R595), 10 ng/ml. Detection: 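Nuclear mCherry signal of the Tnf promoter reporter measured by imaging after background removal, scaled to each plate median and turned into robust z-scores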. Direction: Tnf reporter robust z-score: higher = stronger Tnf promoter reporter signal after LPS. Call rule: 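Called active when robust z-score is at most -1.3, matching the median of the Tlr4 knock-down control, or over 3; control wells and wells with under 50 cells never active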. Meaning of the calls: active = Tnf reporter clearly lowered or raised; inactive = no clear change in Tnf reporter.
The deposit covers about 17,000 reagents; shown is a random part of them. About 1,110 of all reagents (6.6%) count as active. 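Active means lowered or raised reporter signal; replicate intensities are raw and not normalised per plate.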 Unmarked entries are inactive. Further read-outs or replicates are left out here.

Efna5 [SID315466451] → Tnf reporter robust z-score: -1.69 (active); fewer than 50 cells in well: enough cells in well
Fbxl6 [SID315470755] → Tnf reporter robust z-score: -1.37 (active); fewer than 50 cells in well: enough cells in well
Creb3l2 [SID315477543] → Tnf reporter robust z-score: -0.37; fewer than 50 cells in well: enough cells in well
Tbx6 [SID315469599] → Tnf reporter robust z-score: 0.67; fewer than 50 cells in well: enough cells in well
Puf60 [SID315473336] → Tnf reporter robust z-score: 0.15; fewer than 50 cells in well: enough cells in well
Msrb1 [SID315470576] → Tnf reporter robust z-score: -0.33; fewer than 50 cells in well: enough cells in well
Tbl1xr1 [SID315475772] → Tnf reporter robust z-score: -1.03; fewer than 50 cells in well: enough cells in well
Sap130 [SID315480820] → fewer than 50 cells in well: fewer than 50 cells per well; well left out of calls

Continued (2 carried over from the part before).
Tbl1xr1 [SID315475772] → Tnf reporter robust z-score: -1.03; fewer than 50 cells in well: enough cells in well
Sap130 [SID315480820] → fewer than 50 cells in well: fewer than 50 cells per well; well left out of calls
Pole [SID315468621] → Tnf reporter robust z-score: 0.61; fewer than 50 cells in well: enough cells in well
Drd5 [SID315466382] → fewer than 50 cells in well: fewer than 50 cells per well; well left out of calls
Kctd5 [SID315473767] → Tnf reporter robust z-score: 0.63; fewer than 50 cells in well: enough cells in well
Poldip2 [SID315473236] → fewer than 50 cells in well: fewer than 50 cells per well; well left out of calls
Timd4 [SID315480980] → Tnf reporter robust z-score: -0.36; fewer than 50 cells in well: enough cells in well
Or13a27 [SID315468324] → Tnf reporter robust z-score: -0.78; fewer than 50 cells in well: enough cells in well
Tcf23 [SID315473918] → fewer than 50 cells in well: fewer than 50 cells per well; well left out of calls
Sowahd [SID315479811] → Tnf reporter robust z-score: 1.62; fewer than 50 cells in well: enough cells in well
Bbc3 [SID315477234] → Tnf reporter robust z-score: 1.18; fewer than 50 cells in well: enough cells in well
Celsr1 [SID315465934] → Tnf reporter robust z-score: 0.37; fewer than 50 cells in well: enough cells in well
4833444G19Rik [SID315481218] → Tnf reporter robust z-score: -0.81; fewer than 50 cells in well: enough cells in well
Usp12 [SID315469913] → Tnf reporter robust z-score: -0.37; fewer than 50 cells in well: enough cells in well
Gpr135 [SID315479388] → Tnf reporter robust z-score: 0.85; fewer than 50 cells in well: enough cells in well
